Reference: patent EP0109697B1, “Rodent bait” (priority 1982, dated 1984)
Where two headings read alike, the source gives them in different places.

Experiments:
[1] = test system: rats with a body weight approximately 250 g; assay: No-choice feeding test of three 100 ppm aldicarb presentations (Example 9), rats; type: in vivo, rat; conditions: after 5 days
Experimental: (§1) Three baits were produced containing the toxicant aldicarb, each at 100 ppm (0.01%) concentration. Aldicarb was presented in the bait either homogeneously dispersed in the manner of a conventional rodenticide, as discrete 0.4 x 0.4 mm particles, (formulation C) or as discrete 1.0 x 1.0 mm particles. The diluent was medium grade oatmeal in all cases. Tests were carried out on mice with a body weight approximately 20 g, rats with a body weight approximately 250 g, and rabbits with a body weight approximately 2,500 g.
(§2) Baits were offered with no choice of alternative food for five days.

[2] = test system: rabbits with a body weight approximately 2,500 g; type: in vivo, rabbit; conditions: no choice, after 5 days
Experimental: as §1, §2

[3] = 100 ppm as 1.0 × 1.0 mm particles

## CNC(=O)O/N=C/C(C)(C)SC [aldicarb, 2 methyl-2-(methylthio) propionaldehyde 0-(methylcarbamoyl) oxime]
[1]; 100 ppm as 0.4 × 0.4 mm particles (formulation C)
  Rat Take: 3.4 g/day
[1]; [3]
  Rat Take: 9.9 g/day
[1]; 100 ppm as HOMOGENEOUS
  Rat Take: 1.9 g/day
[2]; [3]
  Rabbit Take: 11.4 g/day
[2]; 100 ppm as HOMOGENEOUS
  Rabbit Take: 14.2 g/day
